# Experimental data: PubChem BioAssay AID540256 (National Center for Advancing Translational Sciences (NCATS), 2011)
# Hit rate of the full screen: of about 300,000 compounds, about 3,700 (1.2%) were called active. This list was built around the results that the source calls inconclusive (neither active nor inactive); the mix of calls is not that of the screen. The call rests on the fitted dose curve; tested in HEK293 cells. Where the call is inconclusive, the potency comes from a doubtful curve fit.
# Test: qHTS for Inhibitors of binding or entry into cells for Lassa Virus; further: nearly all actives have a fitted effect of over 50% in size
# Details: Lassa virus pseudotype entry inhibition, cell reporter; activity change, negative = inhibition: at 37.9 µM (top of the series) unless noted
# On the % scale 0 is the no-effect control and ±100 the full control effect; potency means the concentration at half of the fitted maximal effect.
Compound,Potency,"activity change, negative = inhibition"
CC(C)(C)OC(=O)N[C@@H](Cc1c[nH]c2ccccc12)c1nnc(SCC(N)=O)o1,"inconclusive: 29.1 µM [inhibitor, single point]",–
CCN(CC)C(=O)N1CCN(S(=O)(=O)c2ccc(C)c(C)c2)CC1,"inconclusive: 35.5 µM [inhibitor, single point]",–
CC(=O)Nc1ccc(Nc2nnc(-c3ccc(O)cc3)c3ccccc23)cc1,"inconclusive: 0.794 µM [inhibitor, single point]",–
O=C(NCC(c1cccs1)S(=O)(=O)c1cccs1)c1ccc(C(F)(F)F)cc1 (centres undefined),"inconclusive: 35.5 µM [inhibitor, single point]",–
Cc1ccc(NC2CCCN(C(=O)c3cccc4nccnc34)C2)cc1C (centres undefined),"inconclusive: 3.98 µM [inhibitor, single point]",–
CN(C)CCC(=O)NCC1OCCc2ccccc21 (centres undefined),–,inactive: 3.13%
CN1C(=O)c2ccccc2Sc2ccc(NC(=O)N3CCOCC3)cc21,"inconclusive: 35.5 µM [inhibitor, single point]",–
O=C(Cc1csc2nc(-c3ccccc3)cn12)NCc1ccc(F)cc1,"inconclusive: 15.8 µM [activator, single point]",–
CCOC(=O)N1CCN(/[N+]([O-])=N/Oc2ccc([N+](=O)[O-])cc2[N+](=O)[O-])CC1,"inconclusive: 23.1 µM [inhibitor, single point]",–
NC(=O)c1ccc(NC(=O)Cc2cccs2)cc1,–,inactive: -5.73% [at 46.1 µM]
COC(=O)C1=CN(Cc2ccc(OC)cc2)C=C(C(=O)OC)C1c1ccc(O)c(OC)c1,"inconclusive: 0.316 µM [inhibitor, full curve, poor fit]",–
O=C(Cc1ccccc1)Nc1ccc(C(=O)NCc2ccccc2)cc1,–,inactive: -0.431%
COc1ccc(CCCc2nnc(SCC(=O)Nc3ccccc3F)o2)cc1C,"inconclusive: 35.5 µM [inhibitor, single point]",–
CC(C)(C)OC(=O)N1CCC(C(=O)Nc2cccc(C(=O)NC3CC3)c2)CC1,"inconclusive: 9.95 µM [activator, full curve, poor fit]",–
Cc1ccc(-n2ncc3c(N(CCO)Cc4ccccc4)ncnc32)cc1,"inconclusive: 1.58 µM [activator, partial curve, poor fit]",–
c1ccc2sc(NC3=NCN(C4CCCCC4)CN3)nc2c1,"inconclusive: 2.91 µM [activator, full curve, poor fit]",–
Clc1ccc2c(N/N=C/c3cccc(Br)c3)ccnc2c1,"inconclusive: 35.5 µM [inhibitor, single point]",–
O=c1[nH]c2ccc(NS(=O)(=O)c3ccc(F)c(Cl)c3)cc2[nH]1,"inconclusive: 35.5 µM [inhibitor, single point]",–
CCn1c(C)cc(/C=C2\NC(=O)N(Cc3ccc(Cl)cc3)C2=O)c1C,–,inactive: -2.3%
CCOC(=O)C1(Cc2cccc(OC)c2)CCN(Cc2ccc(OC)c(OC)c2)CC1,"inconclusive: 12.6 µM [inhibitor, single point]",–
COc1cccc(CNc2ccc([N+](=O)[O-])cc2C)c1,"inconclusive: 35.5 µM [inhibitor, single point]",–
Cc1cc(Br)ccc1NC(=O)COc1cc(=O)n(C)c2ccccc12,–,inactive: -0.0769% [at 46.1 µM]

# Among those listed so far, 4 contain fluorine:
Compound,Potency,"activity change, negative = inhibition"
O=C(NCC(c1cccs1)S(=O)(=O)c1cccs1)c1ccc(C(F)(F)F)cc1 (centres undefined),"inconclusive: 35.5 µM [inhibitor, single point]",–
O=C(Cc1csc2nc(-c3ccccc3)cn12)NCc1ccc(F)cc1,"inconclusive: 15.8 µM [activator, single point]",–
COc1ccc(CCCc2nnc(SCC(=O)Nc3ccccc3F)o2)cc1C,"inconclusive: 35.5 µM [inhibitor, single point]",–
O=c1[nH]c2ccc(NS(=O)(=O)c3ccc(F)c(Cl)c3)cc2[nH]1,"inconclusive: 35.5 µM [inhibitor, single point]",–

# Next part

Compound,Potency,"activity change, negative = inhibition"
Cc1ccc(NC(=S)N(Cc2cccs2)Cc2cc3cc(C)ccc3[nH]c2=O)cc1,active: 7.08 µM,–
COc1ccccc1NC(=O)c1ccc2[nH]c(C)cc(=O)c2c1,"inconclusive: 3.55 µM [activator, single point]",–
CN(C)/C=N/C(=S)Nc1ccc(Cl)c(Cl)c1,–,inactive: -26.9%
CSc1ccccc1OCc1cc(C(=O)NC(C)CCn2cccn2)no1 (centres undefined),"inconclusive: 35.5 µM [inhibitor, single point]",–
OCCNCCOc1ccc(Cl)c(Cl)c1,"inconclusive: 3.26 µM [activator, partial curve, poor fit]",–
CC(=O)Nc1ccccc1OCC(=O)c1cc(C)n(Cc2cccs2)c1C,–,inactive: -29.6%
COc1cc(Cl)c(C)cc1NC(=O)c1ccccc1NC(=O)CN1CCOCC1,"inconclusive: 14.1 µM [inhibitor, partial curve, poor fit]",–
Cc1cccc2c(=O)cc(C(F)(F)F)[nH]c12,–,inactive: -2.89% [at 46.1 µM]
Cc1ccc(NC(=O)Nc2nc3c(s2)CCCCCC3)cc1C,–,inactive: 3.17% [at 46.1 µM]
Cc1cc(N2CCN(C(=O)Nc3ccc(F)cc3F)CC2)c2ccccc2n1,"inconclusive: 1.12 µM [activator, single point]",–
COc1ccc(/C(N)=N/OC(=O)c2ccc(OC)c([N+](=O)[O-])c2)cc1OC,"inconclusive: 20 µM [inhibitor, single point]",–
CCOC(=O)N1CCN(Cc2nc3ccc([N+](=O)[O-])cc3c(=O)n2-c2ccc(OC)cc2OC)CC1,–,inactive: -18.3%
CCN(C(=O)CSc1nc2ccccc2nc1Cc1cccc(OC)c1)c1cccc(C)c1,active: 7.08 µM,–
COc1cc(C2C3=C(COC3=O)Oc3cc4c(cc32)OCO4)cc(OC)c1OC(C)=O (centres undefined),"inconclusive: 0.708 µM [inhibitor, full curve, poor fit]",–
CCn1c(SCC(=O)Nc2nc(C)c(C)s2)nnc1-c1cccnc1,"inconclusive: 2.06 µM [inhibitor, partial curve, poor fit]",–
c1ccc(Cn2nnnc2C(c2cccnc2)N2CCN(c3ccccc3)CC2)cc1 (centres undefined),"inconclusive: 16.4 µM [inhibitor, partial curve, poor fit]",–
Cc1ccc2oc(-c3cc(NC(=O)Cc4ccccc4)ccc3Cl)nc2c1,"inconclusive: 0.562 µM [inhibitor, full curve, poor fit]",–
N#CCCn1nnc2ccccc21,–,inactive: -5.48%
CC(C)CC(=O)NC(Nc1ccc([N+](=O)[O-])cc1)C(Cl)(Cl)Cl (centres undefined),"inconclusive: 20.6 µM [inhibitor, single point]",–
CCCCc1ccc(NC(=S)N2CCN(c3ccccn3)CC2)cc1,"inconclusive: 2.82 µM [inhibitor, full curve]",–
CC(c1ccccc1C(O)(c1ccccc1)c1ccccc1)N(C)C (centres undefined),–,inactive: -17.1%
CCCCOc1ccc(C(=O)NCCS(=O)(=O)N2CCN(c3ccccc3OC)CC2)cc1,"inconclusive: 8.91 µM [inhibitor, single point]",–
